Among all 360,000 compounds or so, about 7,500 (2.1%) were called active. Inconclusive means that the source gave no clear call. Such entries were picked first, then a sample of the others. The call rests on the fitted dose curve; in most records, active means well fitted inhibition curve with a large enough effect; inconclusive means small, poorly fitted or top-dose-only effect, or effect the other way; inactive means flat fitted curve, though single readings scatter. Potencies beside an inconclusive call are fits to weak or partial responses and may not hold up.
Assay: Nrf2 qHTS screen for inhibitors; further: nearly all actives have a fitted effect of over 60% in size
Details: A549 ARE-Fluc reporter, luciferase luminescence, 18-24 h; series mostly up to 46 µM
Outline: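 Cells were seeded and rested 2 h, then exposed to compounds for 18-24 h. CellTiter-Fluor was read first as a viability measure. BugLite was added 15 min before the final luminescent read of ARE-luciferase activity in A549 cells.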
In the case of `CC(CNc1nc2ccccc2n2cnnc12)c1ccccc1` (centres undefined), the Potency was inconclusive: 13 µM [falling, partial curve, poor fit].
For `COCCC(=O)N1CCC(Oc2ccc(C(=O)N(C)CCCC3CCCC3)cc2)CC1`, the Potency was inconclusive: 29.1 µM [falling, single point].
For `CC1CN(C(=O)c2cc(S(=O)(=O)N(C)c3ccc(F)cc3)ccc2Cl)CC(C)O1` (centres undefined), the Potency was inconclusive: 7.31 µM [falling, partial curve, poor fit].
With `COc1cccc([C@H]2Nc3ccc(S(=O)(=O)Nc4cc(C)ccc4C)cc3[C@H]3C=CC[C@H]32)c1` the Potency was inconclusive: 29.1 µM [falling, single point].
With `COc1cnc(-c2ccccn2)nc1Oc1ccc(Cl)cc1` the Potency was inconclusive: 13 µM [falling, partial curve, poor fit].
For `Nc1nonc1C(=O)NCCNCc1cc(Br)ccc1OCc1ccccc1F`, the Potency was inconclusive: 11.6 µM [falling, partial curve, poor fit].
In the case of `Cc1ccc(C(=O)N/N=C/c2ccc(OC(=O)c3ccccc3Cl)cc2)cn1`, the Potency was inconclusive: 10.3 µM [falling, partial curve].
With `COc1ccc(NC(=O)CSc2nncn2C)cc1` the Potency was inconclusive: 8.2 µM [activator, partial curve, poor fit].
With `COC(=O)c1ccc(C2/C(=C(/O)c3ccc4c(c3)CC(C)O4)C(=O)C(=O)N2CCN2CCOCC2)cc1` (centres undefined) the Potency was inconclusive: 14.6 µM [activator, partial curve, poor fit].
With `CC(=O)c1cccc(NC(=O)c2ccc(-c3ccccc3[N+](=O)[O-])o2)c1` the Potency was inconclusive: 3.26 µM [activator, partial curve].
For `CCC(C)COC(c1ccccc1)(c1ccccc1)C(Oc1nc(C)cc(C)n1)C(=O)O` (centres undefined), the Potency was inconclusive: 23.1 µM [falling, partial curve].
With `Cn1cc(SCC(=O)Nc2nc3ccccc3s2)c2ccccc21` the Potency was inconclusive: 32.6 µM [falling, single point].
For `Cc1ccc(Cn2c(N/N=C/c3ccncc3)nc3c2c(=O)n(C)c(=O)n3C)cc1`, the Potency was inconclusive: 3.26 µM [falling, partial curve, poor fit].
For `O=C(NNC(=O)c1cc(-c2ccc(Cl)cc2)nc2ccccc12)c1csc(N2CCOCC2)n1`, the Potency was inconclusive: 29.1 µM [falling, single point].
With `CCc1ccc2c(CC(=O)Nc3cccc(S(=O)(=O)N4CCOCC4)c3)coc2c1` the Potency was inconclusive: 16.4 µM [falling, single point].
With `CC(c1ccccc1)N(C)CC(=O)NC(=O)NCCC1=CCCCC1` (centres undefined) the Potency was inconclusive: 29.1 µM [falling, single point].
With `CCc1ccc(C(=O)c2cn(CC(=O)Nc3ccc(OC)c(Cl)c3)c3nc(C)ccc3c2=O)cc1` the Potency was “inactive”.
With `Cc1ccn2cc(CCNC(=O)C3CC=CCC3C(=O)O)nc2c1` (centres undefined) the Potency was inconclusive: 20.6 µM [activator, partial curve, poor fit].
For `Cc1sc2nc(CSCC(=O)Nc3c(Cl)cccc3Cl)[nH]c(=O)c2c1C`, the Potency was inconclusive: 14.6 µM [falling, single point].
For `C/C(=N\Nc1cccc(Cl)c1)c1ccc(-n2ccnc2)cc1`, the Potency was inconclusive: 2.91 µM [falling, partial curve, poor fit].
With `COc1ccccc1C(=O)NC(=S)Nc1ccc(Cc2ccncc2)cc1` the Potency was active: 5.8 µM.
In the case of `CN1CCN(C(=O)c2cc3c(ccc4ccccc43)oc2=O)CC1`, the Potency was inconclusive: 10.3 µM [falling, partial curve, poor fit].
With `Cc1ccccc1Nc1nc(N)nc(CSc2ccc(F)cc2)n1` the Potency was inconclusive: 29.1 µM [activator, single point].
In the case of `Cc1cc(C2=NNC(=NCCc3ccccc3)SC2)c(C)n1CC1CCCO1` (centres undefined), the Potency was inconclusive: 9.2 µM [activator, partial curve].
In the case of `Cc1ccc(NC(=O)CSc2n[nH]c(-c3ccco3)n2)c(C)c1`, the Potency was inconclusive: 29.1 µM [activator, single point].
In the case of `O=C(/C=C/c1ccc(-c2ccccc2[N+](=O)[O-])o1)c1ccc(F)cc1`, the Potency was “inactive”.
For `COc1cccc(CN(C)C(=O)/C=C/c2ccc(S(=O)(=O)N3CCCCCC3)cc2)c1`, the Potency was inconclusive: 25.9 µM [falling, partial curve, poor fit].
For `CCCOC(=O)C1=C(C)NC2=C(C(=O)CCC2)C1c1cccs1` (centres undefined), the Potency was “inactive”.
With `Cc1cc(C)cc(NC(=O)COC(=O)COc2ccc(N(C)S(=O)(=O)c3cccs3)cc2)c1` the Potency was inconclusive: 6.51 µM [activator, partial curve, poor fit].
In the case of `Cc1ccc(NC(=O)c2cc3cccc([N+](=O)[O-])c3[nH]2)cc1`, the Potency was inconclusive: 3.66 µM [activator, partial curve, poor fit].
With `CCCn1c2ccccc2c2cnn(CC(=O)NCCc3cc(OC)ccc3OC)c(=O)c21` the Potency was “inactive”.
In the case of `CCOC(=O)N1CCC(Nc2nc3ccccc3n3nnnc23)CC1`, the Potency was inconclusive: 0.13 µM [falling, full curve, poor fit].
In the case of `COc1ccc(Nc2nc(-c3c(C)nc4ncccn34)cs2)cc1`, the Potency was inconclusive: 14.6 µM [falling, single point].
In the case of `Cc1ccccc1S(=O)(=O)NNC(=O)C(=O)NNc1ccccn1`, the Potency was inconclusive: 20.6 µM [falling, single point].
For `O=C(c1cc(=O)c2ccccc2o1)N1CCN(c2cccc(Cl)c2)CC1`, the Potency was inconclusive: 18.4 µM [falling, partial curve, poor fit].
With `COc1cc(NC(=O)Cn2cnc3c(nc4n3CCCCC4)c2=O)cc(OC)c1OC` the Potency was inconclusive: 2.31 µM [activator, full curve].
For `COc1ccc(C(=O)COc2ccc(C)cc2NC(C)=O)cc1`, the Potency was inconclusive: 10.3 µM [activator, partial curve].
For `O=C(C1CCN(c2ncnc3c2nc2n3CCCCC2)CC1)N1CCN(c2ccccc2)CC1`, the Potency was “inactive”.
In the case of `Cn1c(=O)n(C)c2cc([N+](=O)[O-])c(N3CCN(C(=O)c4ccc(F)cc4)CC3)cc21`, the Potency was active: 18.4 µM.

— PubChem BioAssay AID504444 (National Center for Advancing Translational Sciences (NCATS), 2011)
Potency means the concentration at half of the fitted maximal effect.
